This passage reports binding results from article doi:10.1101/2025.02.21.639583.

Assay [1] addresses T1, Ldm1-GFP (Lipid Droplet Motility 1 / Yer085c, C-terminally GFP-tagged, TEF2 promoter) (S. cerevisiae) (UniProt P40058).
T1 sequence: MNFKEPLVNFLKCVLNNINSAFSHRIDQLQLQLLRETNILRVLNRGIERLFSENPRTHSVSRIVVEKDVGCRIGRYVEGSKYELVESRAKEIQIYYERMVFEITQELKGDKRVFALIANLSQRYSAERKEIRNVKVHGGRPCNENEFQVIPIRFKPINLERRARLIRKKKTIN
The assay can be described thus: co-IP.

In assay [2] the target is T2, GST-tagged Ldm1 (S. cerevisiae) (UniProt P40058).
T2 sequence: T1 sequence
The assay can be described thus: pull-down.

Assay [3] addresses T1, Ldm1-GFP (Lipid Droplet Motility 1 / Yer085c, C-terminally GFP-tagged, TEF2 promoter) (S. cerevisiae). In words: co-IP. The source holds these as a separate data set.

Where two headings read alike, the source gives them in different places. These are yes or no findings as the source states them, for the method shown. Binding seen in cells or lysates may run through a third protein. Some binding calls cover weakened binding; strength is not graded here. Where a sequence is shown, tags or fusion partners need not be part of it.

Consider Myo2-3xHA (from UniProt P19524 1-1574), for which the binding entry in assay [1] was “binds”.

B1: GFP-Myo2-GTD(1113-1574) (domain or fragment, UniProt P19524 1113-1574)
chain: MMLENSDLSPNDLNLKSRSTPSSGNNHIDSLSVDRENGVNATQINEELYRLLEDTEILNQEITEGLLKGFEVPDAGVAIQLSKRDVVYPARILIIVLSEMWRFGLTKQSESFLAQVLTTIQKVVTQLKGNDLIPSGVFWLANVRELYSFVVFALNSILTEETFKNGMTDEEYKEYVSLVTELKDDFEALSYNIYNIWLKKLQKQLQKKAINAVVISESLPGFSAGETSGFLNKIFANTEEYTMDDILTFFNSIYWCMKSFHIENEVFHAVVTTLLNYVDAICFNELIMKRNFLSWKRGLQLNYNVTRLEEWCKTHGLTDGTECLQHLIQTAKLLQVRKYTIEDIDILRGICYSLTPAQLQKLISQYQVADYESPIPQEILRYVADIVKKEAALSSSGNDSKGHEHSSSIFITPETGPFTDPFSLIKTRKFDQVEAYIPAWLSLPSTKRIVDLVAQQVVQDGH
B1: in assay [2], the binding entry was “binds”.

B2: Ldo16 (LD surface protein) (protein, UniProt P40219 1-148)
chain: MVSTATFFFFVYLTLFVVIGFFSSLFIIPLLGISFVFAIGVVSFGFCSNMSFKMAQLIYVRADAFLKKVLDKMALQTQPAQLQEPQEPLSTLRPVSNPTIPSPLRQTARPSKFVTEEDVIFEPVSAQSAIARSLETTANKAGNKFQLS
As to B2, the binding entry in assay [3] is listed as “binds”.
